# Results of single-concentration screens

Protein sequences, listed by entry. Tags and fused reporters are not part of them. Residues count along the entry.
UniProt Q4DA54, 1-478: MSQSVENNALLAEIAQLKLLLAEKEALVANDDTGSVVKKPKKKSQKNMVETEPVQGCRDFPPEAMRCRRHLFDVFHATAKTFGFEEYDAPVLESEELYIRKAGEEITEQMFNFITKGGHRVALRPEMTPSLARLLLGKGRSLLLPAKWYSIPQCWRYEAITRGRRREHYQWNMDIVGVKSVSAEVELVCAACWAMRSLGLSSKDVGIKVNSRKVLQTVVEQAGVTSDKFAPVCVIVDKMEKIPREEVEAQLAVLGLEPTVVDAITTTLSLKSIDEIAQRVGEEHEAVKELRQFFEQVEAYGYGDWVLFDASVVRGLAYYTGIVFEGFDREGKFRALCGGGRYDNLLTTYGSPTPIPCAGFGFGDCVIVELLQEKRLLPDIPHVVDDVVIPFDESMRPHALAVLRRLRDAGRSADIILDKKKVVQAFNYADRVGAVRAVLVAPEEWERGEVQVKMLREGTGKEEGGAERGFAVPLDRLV
UniProt Q8IDJ8, 1-583: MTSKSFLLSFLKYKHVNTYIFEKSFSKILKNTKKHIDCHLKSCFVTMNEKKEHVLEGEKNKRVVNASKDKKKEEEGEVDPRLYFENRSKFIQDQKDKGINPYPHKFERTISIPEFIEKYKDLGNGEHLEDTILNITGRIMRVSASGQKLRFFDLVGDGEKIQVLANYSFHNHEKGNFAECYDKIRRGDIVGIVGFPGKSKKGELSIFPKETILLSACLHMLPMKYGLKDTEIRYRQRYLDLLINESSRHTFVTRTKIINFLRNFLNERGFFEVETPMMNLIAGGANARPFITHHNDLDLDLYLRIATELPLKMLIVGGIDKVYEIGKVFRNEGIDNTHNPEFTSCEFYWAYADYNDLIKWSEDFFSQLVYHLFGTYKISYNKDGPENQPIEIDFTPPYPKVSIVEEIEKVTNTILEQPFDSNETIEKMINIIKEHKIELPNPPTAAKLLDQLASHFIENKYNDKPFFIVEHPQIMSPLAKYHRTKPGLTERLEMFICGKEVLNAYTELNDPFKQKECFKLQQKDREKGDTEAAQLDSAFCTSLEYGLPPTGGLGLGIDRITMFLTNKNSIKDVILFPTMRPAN

Each number is a percent effect as filed. How 0% and 100% were set is not recorded. Most values in the screen are low, and negative values occur. The compounds are a random part of those screened.

TcHisRS: 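Histidine-tRNA ligase, Trypanosoma cruzi CL Brener (UniProt Q4DA54). Enzyme assay of histidyl-tRNA synthetase; the read-out is not stated. Concentration: 30 µM. Higher reads as stronger inhibition (inferred: compounds with an IC50 in retests scored well above the rest). Of about 69,000 compounds tested this way, about 31 (0.045%) reached 50% or more in at least one test.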
PfKRS1: 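Enzyme assay of the cytosolic lysyl-tRNA synthetase in 384-well plates, read by luminescence. Target: Lysine-tRNA ligase, Plasmodium falciparum 3D7 (UniProt Q8IDJ8). Compounds at 30 µM. Higher reads as stronger inhibition, judged from the few compounds that gave an IC50. Of about 69,000 compounds tested this way, about 49 (0.071%) reached 50% or more in at least one test.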

For OCc1cc2ccccc2nc1N1CCCC1 the result was TcHisRS: 2.717%; PfKRS1: -1.482%. CN(CC1(CO)CCC1)C(=O)C1CCC(=O)N(Cc2ccc(Cl)cc2)C1 (stereo not given) read TcHisRS: 8.671%; PfKRS1: 9.029%. With CN1CC(=O)N(C2CCNC2)Cc2c(NC3CCCC3)ncnc21 (stereo not given) the screen gave TcHisRS: 2.959%; PfKRS1: -1.331%. Result for Cc1cc(C(=O)NCc2cccnc2N(C)C)c(C)o1 was TcHisRS: 4.118%; PfKRS1: -0.0934%. Result for CN(C)CCN(Cc1ccccn1)C(=O)Nc1cccc(F)c1 was TcHisRS: -0.5236%; PfKRS1: 5.627%. Cc1ccc(C)c(NC(=O)C(C)N2CCCN(c3nccs3)CC2)c1 (stereo not given) read TcHisRS: 1.667%; PfKRS1: 8.029%. For Cc1cc(C)c(CNC(=O)N2CCCN(C(=O)C(C)C)CC2)c(C)c1 the result was TcHisRS: 3.175%; PfKRS1: 3.589%. For Cc1csc(CNC(=O)N2CCCC(c3nncn3C)C2)n1 (stereo not given) the result was TcHisRS: -4%; PfKRS1: -0.7192%.

O=C(NC1CC1)N1CCOCC2(C1)CN(c1ccccc1)C(=O)CO2 (stereo not given) read TcHisRS: 7.619%; PfKRS1: 3.892%. For Cc1noc([C@]23COC[C@H]2CN(C(=O)N2CCCC2)C3)n1 the result was TcHisRS: 8.84%; PfKRS1: 3.454%. CCc1ccc(CN2CCC3(CC2)NC(=O)CC3c2ccncc2)o1 (stereo not given) gave TcHisRS: 0.5464%; PfKRS1: 0.2137%. With NC(=O)C1CCN(C(=O)c2ccn(-c3ccc(F)cc3)n2)CC1 the screen gave TcHisRS: 1.754%; PfKRS1: -1.437%. O=C(CN1CCN(c2ccc3nncn3n2)CC1)NC1CCCCC1 read TcHisRS: 2.5%; PfKRS1: 0.1684%. With Cc1nc(CN2CCN(C(C)C(=O)NC3CCCC3)CC2)cs1 (stereo not given) the screen gave TcHisRS: 4.972%; PfKRS1: 2.486%. With CCn1cc(S(=O)(=O)NCC(OC)c2cccc(Cl)c2)cn1 (stereo not given) the screen gave TcHisRS: 8.889%; PfKRS1: 6.94%. O=c1c(NCCNCCO)c(N2CCN(c3ccccc3)CC2)c1=O gave TcHisRS: 6.098%; PfKRS1: 5.17%.

Result for CCc1ccc(C(C)NC(=O)c2ccc(CS(C)(=O)=O)o2)cc1 (stereo not given) was TcHisRS: 4.433%; PfKRS1: 4.973%. With COc1ccnc(NC(=O)CSCc2cccnc2)c1 the screen gave TcHisRS: 2.809%; PfKRS1: 2.179%. COc1nc2c(cc1C(=O)NCCCc1csc(N)n1)CCC2 gave TcHisRS: 2.717%; PfKRS1: 4.876%. For Cc1cccc(CN2C[C@@H]3COC[C@]3(CNC(=O)C3CC3)C2)c1 the result was TcHisRS: 1.508%; PfKRS1: 1.393%. CN(Cc1ccco1)Cc1ccccc1CNC(=O)c1c[nH]nn1 read TcHisRS: 4.926%; PfKRS1: -0.07387%. NC(=O)c1cccc(CCNCc2cccs2)c1 gave TcHisRS: 7.563%; PfKRS1: 4.355%. O=C(N1CCCO1)[C@@]12CCO[C@@H]1CCN(Cc1cccnc1)C2 read TcHisRS: 6.667%; PfKRS1: 0.6133%. CCn1nc(C)c2ccn(CC(=O)NC3CCCC3)c(=O)c21 gave TcHisRS: 4.348%; PfKRS1: -0.07133%.

With Cc1cc(C[C@@H]2COC[C@H]2NCc2ccccc2C(F)(F)F)on1 the screen gave TcHisRS: 0.5405%; PfKRS1: -3.766%. For CCc1n[nH]c(C(=O)N2CCCC3(CN(C)C(=O)O3)C2)c1C (stereo not given) the result was TcHisRS: 5.056%; PfKRS1: 3.173%. Result for Cn1ccc2c(ccn2CC(=O)Nc2ccc(Br)cc2)c1=O was TcHisRS: -6.533%; PfKRS1: 0.8955%. CCN(Cc1ccc(C#N)cc1F)C(=O)CN(C)CC(N)=O gave TcHisRS: 5.882%; PfKRS1: -2.272%. Result for CN(Cc1nc2ccccc2[nH]1)C(=O)CN(C)c1ccccc1 was TcHisRS: 6.173%; PfKRS1: 2.725%. CCNC(c1ccc(CC)cc1)c1cccnc1 (stereo not given) read TcHisRS: -0.8596%; PfKRS1: -0.7576%. c1cncc(-c2nccc(CN3CCC(N4CCCCC4)CC3)n2)c1 read TcHisRS: 2.247%; PfKRS1: -2.457%. CCC(=O)Nc1ccc2c(c1)C1(CCOCC1)CN2CCOC read TcHisRS: 7.735%; PfKRS1: 4.583%.

For O=C(c1cccnc1)N1CCn2nnc(COc3ccccn3)c2C1 the result was TcHisRS: 10.92%; PfKRS1: 4.398%. Result for CC(=O)N1CCCC1c1ccc(Br)cn1 (stereo not given) was TcHisRS: 8.046%; PfKRS1: 0.783%. Cn1cc(-c2nc(C3CCN(S(C)(=O)=O)CC3)cc3c2ncn3C)cn1 gave TcHisRS: -8.589%; PfKRS1: -5.552%. CC(C)CCC(=O)N1CCN(c2ncnc3nc(N)ccc23)CC1 gave TcHisRS: 7.843%; PfKRS1: -2.464%.

Source: ChEMBL document CHEMBL3988442, “University of Dundee, Small-Polar-MMV Screening Library” (2021).